Results taken from PubChem BioAssay AID1347076 (National Center for Advancing Translational Sciences (NCATS), 2019).
Among all 400,000 compounds or so, about 13,000 (3.2%) were called active. This list was built around the results that the source calls inconclusive (neither active nor inactive); the mix of calls is not that of the screen. Calls come from the whole dose curve; as a rule, active = well fitted cell-killing curve with a large enough effect; inconclusive = small, poorly fitted or top-dose-only effect, or effect the other way; inactive = flat fitted curve, though single readings scatter. Where the call is inconclusive, the potency comes from a doubtful curve fit.

Assay: qHTS assay for MDR1-selective chemotherapeutics: Primary screen using the drug-selected MDR subline cells KB-V1; note: nearly all actives have a fitted effect of over 60% in size
Details: KB-V1 MDR cells viability, CellTiter-Glo, 72 h; activity change, negative = cytotoxicity: at 46.1 µM (top of the series)
In short: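 Luminescent ATP read-out (CellTiter-Glo, 10 min) measures survival of drug-selected KB-V1 MDR cells after 72 h, 37 degrees C compound exposure. Medium: phenol-red-free DMEM, 10% FBS. Values from fitted concentration-response curves.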
% is set by controls: 0 for no effect and ±100 for the full control effect; potency is the fitted concentration of half-maximal effect.

| SMILES | Potency | activity change, negative = cytotoxicity |
| --- | --- | --- |
| O=C(O)c1cccc2c1C(=O)c1ccc(N3CCCCC3)cc1S2(=O)=O | inconclusive: 29.1 µM [rising, single point] |  |
| O=C(Nc1ccccc1)N(CCCN1CCOCC1)Cc1ccccc1F |  | inactive: -5.22% |
| O=C(CSc1nc2cc(Cl)ccc2s1)NC1CCCc2ccccc21 (centres undefined) | active: 16.4 µM |  |
| Cc1ccc(CN2c3ccccc3-c3nc(SCC(=O)Nc4c(C)cc(C)cc4C)ncc3S2(=O)=O)cc1 |  | inactive: -32.7% |
| Cc1noc(C)c1S(=O)(=O)N1CCN(c2ccccc2)CC1 |  | inactive: -1.11% |
| Cc1ccc(CNC(=O)COC(=O)c2cccc(S(=O)(=O)N3CCCCC3)c2)cc1 | inconclusive: 18.4 µM [rising, single point] |  |
| CCCCC(C(=O)NC1CCCC1)N(C(=O)c1snc(C(N)=O)c1N)c1ccc(C)cc1 (centres undefined) |  | inactive: 0% |
| O=C1CCCN2N=C(SCC(=O)Nc3cccc(C(F)(F)F)c3)SC2=N1 | inconclusive: 9.2 µM [cytotoxic, partial curve, poor fit] |  |
| Cn1cnc([N+](=O)[O-])c1Oc1ccc2ccccc2c1 | inconclusive: 16.4 µM [cytotoxic, single point] |  |
| CN1CCN(c2ccc([N+](=O)[O-])cc2NC(=O)c2ccccc2Cl)CC1 | inconclusive: 29.1 µM [cytotoxic, single point] |  |
| CCN(c1ccc(OCC(=O)OCC(=O)Nc2ccc(F)c(F)c2F)cc1)S(=O)(=O)c1ccccc1 | inconclusive: 8.2 µM [rising, partial curve, poor fit] |  |
| Cc1ccccc1NC1=NC(=S)N(c2ccccc2)C12CCCCC2 | inconclusive: 14.6 µM [cytotoxic, partial curve, poor fit] |  |
| COC(=O)[C@@]1(Cc2ccc(F)cc2)[C@H]2c3cc(C(=O)N(C)C)n(CCF)c3C[C@H]2CN1C(=O)c1ccccc1 | inconclusive: 9.2 µM [cytotoxic, partial curve, poor fit] |  |
| COc1ccc(/C=C2\SC(=S)N(CCCC(=O)N3CCCCC3CCO)C2=O)cc1 (centres undefined) | inconclusive: 29.1 µM [cytotoxic, single point] |  |
| CCOc1ccccc1NC(=O)N1CCc2c(sc3c2CCCC3)C1c1ccccc1 (centres undefined) |  | inactive: 0% |
| CCc1ccc(N2CC(C(=O)N/N=C/c3cccc([N+](=O)[O-])c3)CC2=O)cc1 (centres undefined) |  | inactive: 3.86% |
| O=C(CNc1ccccc1)N/N=C/c1c(O)ccc2ccccc12 |  | inactive: 16.9% |
| CSc1nnc([C@H](Cc2c[nH]c3ccccc23)NC(=O)OC(C)(C)C)o1 | inconclusive: 6.51 µM [cytotoxic, partial curve] |  |
| CCN1C(=O)[C@H]2[C@H]3CN=C(SCC4CC4)N3[C@@](Cc3ccccc3)(C(=O)OC)[C@H]2C1=O |  | inactive: -0.116% |
| Cc1sc2nc(CN3CCOCC3)nc(NCCc3ccccc3)c2c1C | active: 8.2 µM |  |
| CCOC(=O)N1CCN(C(=S)NC(=O)/C=C/c2ccc(C)cc2)CC1 |  | inconclusive: -9.06% |
| CC(C)N(C(=O)Cn1cc(SCC(=O)NCC2CCCO2)c2ccccc21)C(C)C (centres undefined) | inconclusive: 20.6 µM [cytotoxic, partial curve] |  |
| O=c1c2ccccc2cnn1Cc1n[nH]c(=S)n1-c1ccccc1 |  | inactive: -14.6% |

| SMILES | Potency | activity change, negative = cytotoxicity |
| --- | --- | --- |
| COc1cccc(NC(=O)CN(C)C(=O)CSc2ncnc3sc(C)c(C)c23)c1 | inconclusive: 6.51 µM [cytotoxic, partial curve] |  |
| Cc1cc(=O)[nH]c(SCC(=O)Nc2ccc(Cl)cn2)n1 |  | inactive: 19.6% |
| O=C(NCCc1nnc2ccc(SCC(=O)N3CCCC3)nn12)c1ccc(F)cc1 |  | inactive: 10.7% |
| COc1ccc(C2=NN(C(=O)CCCC(=O)O)C(c3cn(-c4ccccc4)nc3-c3ccccc3)C2)cc1 (centres undefined) | inconclusive: 32.6 µM [cytotoxic, single point] |  |
| COc1ccc(NC(=O)CSc2nc3c(c(=O)n2C)SCC3)cc1OC | inconclusive: 29.1 µM [cytotoxic, single point] |  |
| Cc1cc(C)cc(NC(=O)N2CCC(c3nc4ccccc4o3)CC2)c1 |  | inactive: -23.7% |
| Cc1nn2c(=O)cc(COc3ccc(/C=C(\C#N)C(=O)Nc4ccccc4)cc3Cl)nc2s1 | inconclusive: 1.16 µM [rising, full curve] |  |
| COc1ccc(C(C#N)=Cc2cccc(OC)c2OC)cc1 | inconclusive: 18.4 µM [cytotoxic, single point] |  |
| CCOc1ccc(NC(=S)N2CCC(C(=O)c3ccc(OC)cc3)CC2)cc1 |  | inactive: -29.1% |
| CCN1CCCC1CNc1ncnc2c1[nH]c1ccc(Cl)cc12 (centres undefined) | inconclusive: 23.1 µM [cytotoxic, single point] |  |
| CCN(CC)CCCOC(=O)C1(c2ccccc2)CCCC1 |  | inactive: -3.79% |
| Brc1ccc2c(c1)NC(c1cccnc1)=NC(c1ccccc1)=N2 | inconclusive: 20.6 µM [cytotoxic, partial curve, poor fit] |  |
| CC(C)(C)NC(=O)c1cccc2c1C(=O)c1ccccc1-2 | inconclusive: 29.1 µM [rising, single point] |  |
| O=C(Nc1ccc(NC(=O)C2CCCN2C(=O)OCc2ccccc2)cc1)c1ccco1 (centres undefined) | inconclusive: 9.2 µM [cytotoxic, partial curve] |  |
| CCS(=O)(=O)N1Cc2ccccc2CC1C(=O)Nc1nc(C)cs1 (centres undefined) | inconclusive: 14.6 µM [cytotoxic, single point] |  |
| O=c1oc2ccccc2cc1-c1nc2c(s1)CCCC2 | inconclusive: 8.2 µM [cytotoxic, partial curve, poor fit] |  |
| C=CCC[C@@H](Cc1ccc(F)cc1)C(=O)OC[C@@H]1CCCN1C(=O)[C@H](CC=C)CC(=O)N[C@H](CO)Cc1ccccc1 | inconclusive: 29.1 µM [cytotoxic, single point] |  |
| CCn1cc(/C=N/NC(=O)c2cc3c(ccc4ccccc43)o2)c2ccccc21 | active: 18.4 µM |  |
| CC1=CC(C)(C)Nc2ccc(OC(=O)CN3C(=O)CCC3=O)cc21 | inconclusive: 18.4 µM [cytotoxic, single point] |  |
| Cc1cc(C(C)(C)C)cc(C)c1CCNC(=O)c1c(C)noc1C | inconclusive: 9.2 µM [cytotoxic, partial curve] |  |
| CC(=O)C1C(=O)C=C(c2cccs2)CC1c1ccccc1 (centres undefined) |  | inactive: -28.9% |
| O=C(Cn1cc2c(n1)CCCCC2)NC1CCN(Cc2ccccc2)CC1 | inconclusive: 29.1 µM [cytotoxic, single point] |  |
| COC(=O)C(c1ccccc1)C(CC(=O)c1ccccc1)c1ccccc1 (centres undefined) | inconclusive: 29.1 µM [cytotoxic, single point] |  |

| SMILES | Potency | activity change, negative = cytotoxicity |
| --- | --- | --- |
| Oc1cccc(/C=C/c2ccc3cccc(O)c3n2)c1 | inconclusive: 16.4 µM [cytotoxic, partial curve, poor fit] |  |
| COc1cc(C(=O)Nc2cccc3c2CCCC3)cc(OC)c1OC |  | inactive: 12.2% |
| CC(C)C[C@H]1CNC(=S)N1C[C@H]1CCCN1C[C@H](Cc1ccc(O)cc1)N1C[C@H](CC(C)C)N(CC2CCCCCC2)C1=S | inconclusive: 29.1 µM [cytotoxic, single point] |  |
| COc1ccc(C(=O)N2CCOC2CNC(=O)C(=O)NCc2ccccc2Cl)cc1 (centres undefined) | inconclusive: 20.6 µM [cytotoxic, single point] |  |
| Cc1ccnc(N2C(=O)c3ccccc3C2O)c1 (centres undefined) | inconclusive: 18.4 µM [cytotoxic, single point] |  |
| COc1ccc(NC(=O)C2(C)CCN2C(=O)c2ccc(C(C)(C)C)cc2)cc1OC (centres undefined) | active: 16.4 µM |  |
| O=C(NCc1ccccc1)c1[nH]c(C(F)(F)F)nc1-c1ccccc1 |  | inactive: -13.3% |
| CCN(C(=O)Cc1ccccc1OC)c1nnc(-c2ccncc2)s1 | inconclusive: 10.3 µM [cytotoxic, partial curve] |  |
| O=C(c1cc2sccc2n1Cc1ccccc1)N1CCc2ccccc21 | active: 10.3 µM |  |
| COc1ccc(C(=O)CC(=O)C(=O)Nc2ccccc2C(F)(F)F)cc1 | inconclusive: 16.4 µM [cytotoxic, single point] |  |
| COc1cc(/C=C/C(=O)OCC(=O)NCC2CCCCC2)ccc1O | inconclusive: 18.4 µM [cytotoxic, partial curve, poor fit] |  |
| CCC(C)NC(=O)Cn1c(=O)n(-c2ccc(C)c(C)c2)c(=O)c2c(C)c(C(=O)N(CC)CC)sc21 (centres undefined) | inconclusive: 23.1 µM [rising, partial curve, poor fit] |  |
| CCOC(=O)CSc1nc2cc3c(cc2cc1CC)OCCO3 | inconclusive: 29.1 µM [cytotoxic, single point] |  |
| O=C1/C(=C/c2ccco2)SC(=S)N1CCC(=O)N1CCCCC1CCO (centres undefined) |  | inactive: 0% |
| COc1ccccc1CN(Cc1nc2ccccc2c(=O)[nH]1)C(=O)Nc1ccc(C)cc1 | active: 20.6 µM |  |
| CC(=O)N1c2ccc(S(=O)(=O)N(C)CC(=O)N(Cc3ccccc3)C(C)C)cc2CC1C (centres undefined) |  | inactive: -6.55% |
| OCCN(CCO)CC(O)COCCC12CC3CC(CC(C3)C1)C2 (centres undefined) | inconclusive: 23.1 µM [cytotoxic, partial curve, poor fit] |  |
| CCn1cc(C(=O)N2CCN(c3ccc(OC)cc3)CC2)c2cc(OC)c(OC)cc2c1=O | inconclusive: 0.0731 µM [cytotoxic, full curve, poor fit] |  |
| CCc1cc(=O)oc2c3c(cc(OCC(=O)Nc4cccnc4)c12)OC(C)(C)CC3 | active: 16.4 µM |  |
| CCOc1ccccc1C1C(C(=O)Nc2ccccc2)=C(C)Nc2c(C(=O)Nc3ccc(F)cc3)cnn21 (centres undefined) |  | inactive: -5.98% |
| O=C(Nc1ccc(F)cc1)c1cccnc1Oc1ccccc1 |  | inactive: -7.39% |
| Cc1nnc(SCC(=O)Nc2cccnc2Cl)s1 |  | inactive: 23% |
| C/C(=N\Nc1cccc([N+](=O)[O-])c1)c1cc(F)ccc1O | inconclusive: 29.1 µM [cytotoxic, single point] |  |

Single values from the results shown:
Entry of OCCN(CCO)CC(O)COCCC12CC3CC(CC(C3)C1)C2 (centres undefined) under Potency: inconclusive: 23.1 µM [cytotoxic, partial curve, poor fit]
Entry of O=C(Nc1ccc(F)cc1)c1cccnc1Oc1ccccc1 under activity change, negative = cytotoxicity: inactive: -7.39%
Entry of CCC(C)NC(=O)Cn1c(=O)n(-c2ccc(C)c(C)c2)c(=O)c2c(C)c(C(=O)N(CC)CC)sc21 (centres undefined) under Potency: inconclusive: 23.1 µM [rising, partial curve, poor fit]
Entry of CCn1cc(C(=O)N2CCN(c3ccc(OC)cc3)CC2)c2cc(OC)c(OC)cc2c1=O under Potency: inconclusive: 0.0731 µM [cytotoxic, full curve, poor fit]
Entry of COc1ccccc1CN(Cc1nc2ccccc2c(=O)[nH]1)C(=O)Nc1ccc(C)cc1 under Potency: active: 20.6 µM
Entry of CCc1cc(=O)oc2c3c(cc(OCC(=O)Nc4cccnc4)c12)OC(C)(C)CC3 under Potency: active: 16.4 µM
